{"source": "PubChem BioAssay AID1259424 | University of Nebraska Medical Center, 2018", "assay": "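Seek colon cancer survival genes behaving like KSR1, using a six-gene signature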 (primary screen)", "cell system": "human HCT116 colon cancer cells", "reagents": "siRNA pool against human genes, 50 nM", "read-out": "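Six signature mRNAs by branched-DNA multiplex assay, scaled to two housekeeping genes and non-targeting median, log2; matched to mean KSR1 knockdown profile by Pearson correlation and euclidean distance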", "scale": "mean correlation with KSR1 profile: higher = expression change more like KSR1 knockdown; mean distance from KSR1 profile: higher = expression change less like KSR1 knockdown", "note": "Here is a random part of about 14,000 deposited reagents. 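Higher correlation or smaller distance means closer resemblance to KSR1 loss; control wells, including KSR1 knockdowns, recur on many plates.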 Further read-outs or replicates are left out here. The record does not give: the time to read-out."}
{"Target gene": "STARD8 (GeneID 9754)", "mean correlation with KSR1 profile": -0.686, "mean distance from KSR1 profile": 2.36}
{"Target gene": "FAM20A (GeneID 54757)", "mean correlation with KSR1 profile": -0.113, "mean distance from KSR1 profile": 2.44}
{"Target gene": "CD86 (GeneID 942)", "mean correlation with KSR1 profile": -0.186, "mean distance from KSR1 profile": 1.84}
{"Target gene": "KIF22 (GeneID 3835)", "mean correlation with KSR1 profile": 0.217, "mean distance from KSR1 profile": 1.56}
{"Target gene": "WDR24 (GeneID 84219)", "mean correlation with KSR1 profile": 0.802, "mean distance from KSR1 profile": 1.45}
{"Target gene": "CLMN (GeneID 79789)", "mean correlation with KSR1 profile": 0.0165, "mean distance from KSR1 profile": 1.69}
{"Target gene": "PDS5B (GeneID 23047)", "mean correlation with KSR1 profile": 0.0504, "mean distance from KSR1 profile": 2.43}
{"Target gene": "FLJ10232 (retired record) (GeneID 55099)", "mean correlation with KSR1 profile": 0.38, "mean distance from KSR1 profile": 5.94}

2 entries from above in another layout:
| Target gene | mean correlation with KSR1 profile | mean distance from KSR1 profile |
| --- | --- | --- |
| KIF22 (GeneID 3835) | 0.217 | 1.56 |
| WDR24 (GeneID 84219) | 0.802 | 1.45 |

Further reagents:
{"Target gene": "CAMP (GeneID 820)", "mean correlation with KSR1 profile": 0.0738, "mean distance from KSR1 profile": 2.35}
{"Target gene": "CNOT9 (GeneID 9125)", "mean correlation with KSR1 profile": 0.063, "mean distance from KSR1 profile": 3.49}
{"Target gene": "KIAA1671 (GeneID 85379)", "mean correlation with KSR1 profile": 0.0514, "mean distance from KSR1 profile": 2.17}
{"Target gene": "NDP (GeneID 4693)", "mean correlation with KSR1 profile": -0.0181, "mean distance from KSR1 profile": 2.61}
